Data from paper PMC9365803, “Identification of a HTT-specific binding motif in DNAJB1 essential for suppression and disaggregation of HTT” (Nature Communications, 2022).
No constants are given. Whether binding was seen depends on the method and setting.

Sequences of proteins named here, by UniProt entry; tags and fusion partners are left off. A change or cut given only in a name is not applied to a line headed by its entry. Residues count along the entry.
UniProt P25685, residues 1-323: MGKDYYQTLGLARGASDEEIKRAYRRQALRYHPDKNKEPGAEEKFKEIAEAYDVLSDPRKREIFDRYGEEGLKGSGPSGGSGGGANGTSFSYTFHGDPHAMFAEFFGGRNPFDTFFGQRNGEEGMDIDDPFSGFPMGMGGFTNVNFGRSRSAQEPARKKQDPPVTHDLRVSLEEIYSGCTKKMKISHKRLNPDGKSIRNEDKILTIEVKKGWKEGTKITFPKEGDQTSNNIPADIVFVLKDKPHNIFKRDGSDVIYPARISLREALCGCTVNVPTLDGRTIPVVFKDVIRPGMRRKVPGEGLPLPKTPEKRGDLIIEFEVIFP
UniProt P34932: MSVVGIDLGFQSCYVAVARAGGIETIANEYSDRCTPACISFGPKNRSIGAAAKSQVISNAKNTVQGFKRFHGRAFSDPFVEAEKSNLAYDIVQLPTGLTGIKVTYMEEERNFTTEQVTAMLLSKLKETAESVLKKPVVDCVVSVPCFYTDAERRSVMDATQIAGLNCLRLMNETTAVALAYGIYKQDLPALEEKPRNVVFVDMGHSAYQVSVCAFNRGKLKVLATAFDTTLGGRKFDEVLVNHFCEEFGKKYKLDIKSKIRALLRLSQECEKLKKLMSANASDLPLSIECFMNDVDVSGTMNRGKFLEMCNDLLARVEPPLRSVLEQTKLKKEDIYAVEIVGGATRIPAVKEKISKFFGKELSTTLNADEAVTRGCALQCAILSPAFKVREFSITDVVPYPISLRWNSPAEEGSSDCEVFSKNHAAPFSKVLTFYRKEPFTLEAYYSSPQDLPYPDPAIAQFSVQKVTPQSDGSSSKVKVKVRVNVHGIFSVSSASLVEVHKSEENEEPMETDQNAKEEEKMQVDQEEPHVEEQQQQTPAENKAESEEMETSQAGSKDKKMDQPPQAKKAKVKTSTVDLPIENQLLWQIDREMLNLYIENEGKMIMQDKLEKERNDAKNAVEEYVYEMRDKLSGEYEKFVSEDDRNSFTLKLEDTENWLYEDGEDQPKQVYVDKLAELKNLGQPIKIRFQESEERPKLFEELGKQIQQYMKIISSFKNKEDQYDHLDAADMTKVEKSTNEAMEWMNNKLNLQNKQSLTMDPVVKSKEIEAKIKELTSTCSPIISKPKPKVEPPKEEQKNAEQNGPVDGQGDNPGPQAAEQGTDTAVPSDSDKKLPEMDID

Columns and labels:
HTTExon1Q48 = assay: cross-linking; XL-MS: HTTExon1Q23/48 incubated with Hsc70, DNAJB1 and Apg2 in the presence of ATP; 5–10 μM total protein, 0.5–1 mM SDA, 30 min at room temperature, UV photoactivation, SDS-PAGE, in-gel digestion with elastase, LC/MS; both purified
DNAJB1^ΔDD (human) = DNAJB1^ΔDD (human) (UniProt P25685); assay: SEC; Superdex 75 10/300 GL and Superose 6; 30 mM HEPES-KOH pH 7.4, 50 mM KCl, 1 mM β-mercaptoethanol; 0.5 ml/min; Conalbumin and Ovalbumin as standards; both purified

binding (DNAJB1^ΔDD (human)) | Substance | binding (HTTExon1Q48)
 | Apg2 (from UniProt P34932 1-840) | no binding (tested: 5–10 μM total protein)
no binding | DNAJB1^ΔDD (from UniProt P25685 1-323) (domain or fragment) | 
